# Measured values: patent US20080118498A1
# No constants are given. Whether binding was seen depends on the method and setting. Some binding calls cover weakened binding; strength is not graded here.
# T1: C8 acylated human ghrelin (1-28) (human)
# T1 sequence (peptide, n-octanoyl group on the serine at position three (Ser3)): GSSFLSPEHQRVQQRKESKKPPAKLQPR
# B1: Humanized, affinity matured C2 anti-ghrelin Fab 7b2 (Fab, V domains shown)
# VH: QVQLVQSGAEVKKPGASVKVSCKATGYIFTGYWIEWVRQAPGQGLEWMGDILPGSGSPNYNEKFKGRVTMTTDTSTSTAYMELRSLRSDDTAVYYCARYPIFRLRTERIAEWGQGTLVTVSS
# VL: DIVMTQSPDSLAVSLGERATINCRASKSVSLLGYSYMHWYQQKPGQPPKLLIYFASNLESGVPDRFSGSGSGTDFTLTISSLQAEDVAVYYCQHSIEEPYTFGQGTKLEIK
# What was measured:
# [1] = target: T1, C8 acylated human ghrelin (1-28) (human); assay: KinExA
# [2] = target: T1, C8 acylated human ghrelin (1-28) (human); assay: KinExA and BIAcore SPR, taken together
binder,measurement,setting,value
B1,binding,[1],binds
same,binding,[2],binds
